# The supplement of paper PMC9744312
# Where a name gives a salt, the structure may show the parent alone. The list shows a part of the results. Single values of this set are uncertain.
# System: Peyronie's disease tunica albuginea primary fibroblasts
# Assay: cell viability (DRAQ5 nuclear stain) relative to TGF-beta1-only control; higher = more viable cells
# Conditions: 10 µM; TGF-beta1 10 ng/mL; 72 h
row,SMILES,cell viability
1,CC(O)C(=O)O.N (stereo not drawn) [Ammonium lactate],104%
2,CC(=O)O[C@@]12CO[C@@H]1C[C@H](O)[C@@]1(C)C(=O)[C@H](O)C3=C(C)[C@@H](OC(=O)[C@H](O)[C@@H](NC(=O)OC(C)(C)C)c4ccccc4)C[C@@](O)([C@@H](OC(=O)c4ccccc4)[C@H]21)C3(C)C [Docetaxel Trihydrate],64.9%
3,CC(=O)O[C@@]12CO[C@@H]1C[C@H](O)[C@@]1(C)C(=O)[C@H](O)C3=C(C)[C@@H](OC(=O)[C@H](O)[C@@H](NC(=O)OC(C)(C)C)c4ccccc4)C[C@@](O)([C@@H](OC(=O)c4ccccc4)[C@H]21)C3(C)C [Docetaxel],54.4%
4,COc1cc(O)c(C(=O)c2ccccc2)cc1S(=O)(=O)O [Sulisobenzone],98.4%
5,Nc1cccc2c1C(=O)N(C1CCC(=O)NC1=O)C2=O (stereo not drawn) [Pomalidomide],65.4%
6,COc1cc(C(=O)O)ccc1NC(=O)[C@@H]1N[C@@H](CC(C)(C)C)[C@](C#N)(c2ccc(Cl)cc2F)[C@H]1c1cccc(Cl)c1F [Idasanutlin (RG-7388)],68.4%
7,CC1(C)CCC(C)(C)c2cc(NC(=O)c3ccc(C(=O)O)cc3)ccc21 [Tamibarotene],85.5%
8,N[C@@H](Cc1cc(I)c(Oc2cc(I)c(O)c(I)c2)c(I)c1)C(=O)O [L-Thyroxine],83.8%
9,N[C@@H](Cc1cc(I)c(Oc2cc(I)c(O)c(I)c2)c(I)c1)C(=O)O [Levothyroxine sodium],92.5%
10,N=C(N)NC(=O)Cc1c(Cl)cccc1Cl [Guanfacine Hydrochloride],113%
11,CC(=O)[C@H]1CC[C@H]2[C@@H]3CCC4=CC(=O)CC[C@]4(C)[C@H]3CC[C@]12C [Progesterone],90.6%
12,O=C(O)CSc1nnc(Br)n1-c1ccc(C2CC2)c2ccccc12 [Lesinurad],95.3%
13,CN(C)CC/C=C1/c2ccccc2Sc2ccc(Cl)cc21 [Chlorprothixene hydrochloride],83.9%
14,CN(C)CC/C=C1/c2ccccc2Sc2ccc(Cl)cc21 [Chlorprothixene],81.1%
15,CN(C)CCOC(c1ccccc1)c1ccccc1 [Diphenhydramine HCl],92.9%
16,C[C@]12CC[C@@H]3c4ccc(O)cc4CC[C@H]3[C@@H]1CC[C@@H]2O [Estradiol],97.2%
17,CCCC(CCC)C(N)=O [Valpromide],89%
18,CCN(CC)C(=O)c1cccc(C)c1,90.7%
19,CCN(CC)C(=O)c1cccnc1 [Nikethamide],84%
20,CC(OC(=O)OC1CCCCC1)OC(=O)C1=C(CSc2nnnn2CCN(C)C)CS[C@@H]2[C@H](NC(=O)Cc3csc(N)n3)C(=O)N12 (stereo partly drawn) [Cefotiam Hexetil Hydrochloride],93.9%
21,CCCN(CCC)S(=O)(=O)c1ccc(C(=O)O)cc1 [Probenecid],92.9%
22,Cc1c(-c2ccccc2)oc2c(C(=O)OCCN3CCCCC3)cccc2c1=O [Flavoxate HCl],79%

row,SMILES,cell viability
1,COc1ccc(O)cc1 [Mequinol],92.1%
2,CCCCCCOC(=O)NC(=N)c1ccc(NCc2nc3cc(C(=O)N(CCC(=O)OCC)c4ccccn4)ccc3n2C)cc1 [Dabigatran Etexilate],86.1%
3,NCCCC(=O)O [4-Aminobutyric acid],97.7%
4,CCN(CC)CCOC(=O)c1ccc(N)cc1Cl [Chloroprocaine HCl],91.5%
5,C[C@@H]1NC(=O)[C@@H](N)CNC(=O)[C@H](C2CCNC(=N)N2)NC(=O)/C(=C/NC(N)=O)NC(=O)[C@H](CNC(=O)CC(N)CCCN)NC1=O.N=C1NCC[C@H]([C@@H]2NC(=O)/C(=C/NC(N)=O)NC(=O)[C@H](CNC(=O)C[C@@H](N)CCCN)NC(=O)[C@H](CO)NC(=O)[C@@H](N)CNC2=O)N1 [Capreomycin Sulfate],92.7%
6,CC12CCC(CC1=O)C2(C)C (stereo not drawn) [(+)-Camphor],98.3%
7,C#Cc1cccc(Nc2ncnc3cc(OCCOC)c(OCCOC)cc23)c1 [Erlotinib HCl (OSI-744)],88.3%
8,C#Cc1cccc(Nc2ncnc3cc(OCCOC)c(OCCOC)cc23)c1 [Erlotinib],87%
9,Cc1onc(-c2ccccc2Cl)c1C(=O)N[C@@H]1C(=O)N2[C@@H]1SC(C)(C)[C@@H]2C(=O)O [Cloxacillin Sodium],92.2%
10,CN[C@@H]1[C@H](O)[C@H](NC)[C@H]2O[C@@]3(O)C(=O)C[C@@H](C)O[C@H]3O[C@@H]2[C@H]1O [Spectinomycin 2HCl],91.4%
11,NS(=O)(=O)c1cc2c(cc1Cl)NC(C(Cl)Cl)NS2(=O)=O (stereo not drawn) [Trichlormethiazide],94%
12,COc1ccccc1Oc1c(NS(=O)(=O)c2ccc(C(C)(C)C)cc2)nc(-c2ncccn2)nc1OCCO [Bosentan Hydrate],98.1%
13,COc1cc2c(Oc3ccc(NC(=O)C4(C(=O)Nc5ccc(F)cc5)CC4)cc3F)ccnc2cc1OCCCN1CCOCC1,36.3%
14,CC(C)[N+](C)(CCOC(=O)C1c2ccccc2Oc2ccccc21)C(C)C [Propantheline bromide],85.3%
15,CN1CCC[C@@H]1Cc1c[nH]c2ccc(CCS(=O)(=O)c3ccccc3)cc12 [Eletriptan HBr],94%
16,CN(C)CCC=C1c2ccccc2COc2ccccc21 [Doxepin HCl],76.4%
17,O=C(N[C@H](CO)[C@H](O)c1ccc([N+](=O)[O-])cc1)C(Cl)Cl [Chloramphenicol],90.1%
18,CCC[C@@H]1C[C@@H](C(=O)N[C@@H]([C@H]2O[C@H](SC)[C@H](O)[C@@H](O)[C@H]2O)[C@H](C)Cl)N(C)C1 [Clindamycin],89.4%
19,CCC[C@@H]1C[C@@H](C(=O)N[C@@H]([C@H]2O[C@H](SC)[C@H](O)[C@@H](O)[C@H]2O)[C@H](C)Cl)N(C)C1 [Clindamycin HCl],98.7%
20,C=C1/C(=C\C=C2/CCC[C@]3(C)[C@@H]([C@H](C)CCCC(C)C)CC[C@@H]23)C[C@@H](O)C[C@@H]1O [Alfacalcidol],69.3%
21,CCOc1ccc2ccccc2c1C(=O)N[C@@H]1C(=O)N2[C@@H]1SC(C)(C)[C@@H]2C(=O)O [Nafcillin Sodium],90.6%

# 2 entries drawn at random from the list so far, as already listed:
row,SMILES,cell viability
19,CCC[C@@H]1C[C@@H](C(=O)N[C@@H]([C@H]2O[C@H](SC)[C@H](O)[C@@H](O)[C@H]2O)[C@H](C)Cl)N(C)C1 [Clindamycin HCl],98.7%
15,CN1CCC[C@@H]1Cc1c[nH]c2ccc(CCS(=O)(=O)c3ccccc3)cc12 [Eletriptan HBr],94%
